Measurements taken from paper PMC10878038.
Results are given in words; binding and its absence hold for the method and conditions named. Binding seen in cells or lysates may run through a third protein. Some entries that bind do so weakly or less than the wild type. For part of these data: Sequences can lack the tags named with a protein.

The chains behind the UniProt entries cited, without tags or fusion partners.
UniProt P61019: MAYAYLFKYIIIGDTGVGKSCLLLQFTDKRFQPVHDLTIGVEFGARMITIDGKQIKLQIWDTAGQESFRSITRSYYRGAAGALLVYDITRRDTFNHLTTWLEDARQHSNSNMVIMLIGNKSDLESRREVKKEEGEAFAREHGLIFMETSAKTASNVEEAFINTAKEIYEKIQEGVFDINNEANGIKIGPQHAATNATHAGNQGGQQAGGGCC

B1: Golgi matrix protein 130 (GM130), endogenous in HEK-293T (protein, UniProt Q08379 1-1002)
chain: MWPQPRLPPRPAMSEETRQSKLAAAKKKLREYQQRNSPGVPTGAKKKKKIKNGSNPETTTSGGCHSPEDTPKDNAATLQPSDDTVLPGGVPSPGASLTSMAASQNHDADNVPNLMDETKTFSSTESLRQLSQQLNGLVCESATCVNGEGPASSANLKDLESRYQQLAVALDSSYVTNKQLNITIEKLKQQNQEITDQLEEEKKECHQKQGALREQLQVHIQTIGILVSEKAELQTALAHTQHAARQKEGESEDLASRLQYSRRRVGELERALSAVSTQQKKADRYNKELTKERDALRLELYKNTQSNEDLKQEKSELEEKLRVLVTEKAGMQLNLEELQKKLEMTELLLQQFSSRCEAPDANQQLQQAMEERAQLEAHLGQVMESVRQLQMERDKYAENLKGESAMWRQRMQQMSEQVHTLREEKECSMSRVQELETSLAELRNQMAEPPPPEPPAGPSEVEQQLQAEAEHLRKELEGLAGQLQAQVQDNEGLSRLNREQEERLLELERAAELWGEQAEARRQILETMQNDRTTISRALSQNRELKEQLAELQSGFVKLTNENMEITSALQSEQHVKRELGKKLGELQEKLSELKETVELKSQEAQSLQQQRDQYLGHLQQYVAAYQQLTSEKEVLHNQLLLQTQLVDQLQQQEAQGKAVAEMARQELQETQERLEAATQQNQQLRAQLSLMAHPGEGDGLDREEEEDEEEEEEEAVAVPQPMPSIPEDLESREAMVAFFNSAVASAEEEQARLRGQLKEQRVRCRRLAHLLASAQKEPEAAAPAPGTGGDSVCGETHRALQGAMEKLQSRFMELMQEKADLKERVEELEHRCIQLSGETDTIGEYIALYQSQRAVLKERHREKEEYISRLAQDKEEMKVKLLELQELVLRLVGDRNEWHGRFLAAAQNPADEPTSGAPAPQELGAANQQGDLCEVSLAGSVEPAQGEAREGSPRDNPTAQQIMQLLREMQNPRERPGLGSNPCIPFFYRADENDEVKITVI

What was measured:
[1] = biological target: T1, ULK1-Flag (UniProt O75385); assay: co-IP; HEK-293T transfected with a tagged bait (with Nsp2-HA or empty vector; with GRASP65-myc in Fig. S4C), 36 h; anti-tag magnetic beads at 4°C overnight; endogenous partner detected by IB with specific antibodies
T1 sequence: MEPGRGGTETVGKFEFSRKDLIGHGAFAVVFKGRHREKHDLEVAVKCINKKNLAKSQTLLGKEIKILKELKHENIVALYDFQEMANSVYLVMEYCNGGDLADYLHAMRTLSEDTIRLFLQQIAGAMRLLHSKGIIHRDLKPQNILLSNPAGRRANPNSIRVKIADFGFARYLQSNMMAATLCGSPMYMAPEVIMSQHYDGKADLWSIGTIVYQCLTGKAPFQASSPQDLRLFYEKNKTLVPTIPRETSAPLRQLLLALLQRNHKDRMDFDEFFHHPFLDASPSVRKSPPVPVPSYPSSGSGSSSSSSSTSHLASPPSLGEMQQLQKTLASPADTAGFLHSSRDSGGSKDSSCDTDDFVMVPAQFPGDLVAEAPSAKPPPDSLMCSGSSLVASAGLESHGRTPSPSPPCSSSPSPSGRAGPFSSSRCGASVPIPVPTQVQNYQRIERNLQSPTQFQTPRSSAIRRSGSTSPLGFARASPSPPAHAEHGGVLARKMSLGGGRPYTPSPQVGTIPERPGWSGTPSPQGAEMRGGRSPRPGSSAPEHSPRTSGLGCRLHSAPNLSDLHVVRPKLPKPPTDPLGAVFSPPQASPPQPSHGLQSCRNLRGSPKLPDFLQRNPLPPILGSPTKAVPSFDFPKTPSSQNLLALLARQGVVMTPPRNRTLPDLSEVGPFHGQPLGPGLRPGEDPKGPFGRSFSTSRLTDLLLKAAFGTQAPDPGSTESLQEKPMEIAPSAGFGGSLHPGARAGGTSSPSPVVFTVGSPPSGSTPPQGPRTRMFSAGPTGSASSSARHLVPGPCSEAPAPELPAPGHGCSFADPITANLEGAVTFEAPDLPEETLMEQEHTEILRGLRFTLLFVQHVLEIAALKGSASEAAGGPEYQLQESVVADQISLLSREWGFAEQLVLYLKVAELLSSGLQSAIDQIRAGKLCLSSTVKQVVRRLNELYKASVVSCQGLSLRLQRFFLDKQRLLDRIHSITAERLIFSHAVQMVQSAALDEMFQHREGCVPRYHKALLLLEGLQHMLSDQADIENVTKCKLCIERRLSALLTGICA

[2] = biological target: RAB2-GFP (UniProt P61019); assay: co-IP; Fig. S4A: RAB2-GFP and endogenous GM130, with overexpression of GRASP65-myc; details in the supplemental legends (not shown)
[3] = biological target: RAB2-myc (UniProt P61019); assay: co-IP; HEK-293T transfected with a tagged bait (with Nsp2-HA or empty vector; with GRASP65-myc in Fig. S4C), 36 h; anti-tag magnetic beads at 4°C overnight; endogenous partner detected by IB with specific antibodies

| Molecule | binding [1] | binding [2] | binding [3] |
| --- | --- | --- | --- |
| RAB2, endogenous in HEK-293T (from UniProt P61019 1-212) | binds | – | – |
| B1 | – | binds | binds |
